In paper PMC9360041:
No constants are given. Whether binding was seen depends on the method and setting. For some of these results: Binding seen in cells or lysates may run through a third protein. Some binding calls cover weakened binding; strength is not graded here. For some of these results: Sequences can lack the tags named with a protein. Blank lines part the entries; values can stand above or below the molecule they belong to.

The chains behind the UniProt entries cited, without tags or fusion partners.
UniProt Q99873: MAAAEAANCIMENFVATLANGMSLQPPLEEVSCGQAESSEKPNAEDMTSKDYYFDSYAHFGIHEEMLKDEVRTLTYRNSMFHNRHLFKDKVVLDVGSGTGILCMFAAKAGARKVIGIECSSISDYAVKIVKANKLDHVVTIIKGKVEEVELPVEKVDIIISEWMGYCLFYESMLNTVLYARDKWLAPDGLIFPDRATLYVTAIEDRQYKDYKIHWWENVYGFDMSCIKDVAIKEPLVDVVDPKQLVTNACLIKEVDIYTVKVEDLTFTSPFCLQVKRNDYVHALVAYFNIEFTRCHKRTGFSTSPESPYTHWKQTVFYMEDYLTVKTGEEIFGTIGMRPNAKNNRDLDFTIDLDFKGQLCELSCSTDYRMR

Key:
[1] = target: T1, HA-HBP1 (UniProt O60381); experiment: co-IP; HEK293T cells co-transfected with tagged HBP1 and tagged PRMT1; IP with anti-HA or anti-FLAG antibody and Protein A-Sepharose overnight at 4 °C in IP lysis buffer (25 mM Tris-HCl pH 7.4, 150 mM NaCl, 1% Nonidet P-40, 1 mM EDTA, 5% glycerol); western blotting with anti-FLAG/HA
T1 sequence: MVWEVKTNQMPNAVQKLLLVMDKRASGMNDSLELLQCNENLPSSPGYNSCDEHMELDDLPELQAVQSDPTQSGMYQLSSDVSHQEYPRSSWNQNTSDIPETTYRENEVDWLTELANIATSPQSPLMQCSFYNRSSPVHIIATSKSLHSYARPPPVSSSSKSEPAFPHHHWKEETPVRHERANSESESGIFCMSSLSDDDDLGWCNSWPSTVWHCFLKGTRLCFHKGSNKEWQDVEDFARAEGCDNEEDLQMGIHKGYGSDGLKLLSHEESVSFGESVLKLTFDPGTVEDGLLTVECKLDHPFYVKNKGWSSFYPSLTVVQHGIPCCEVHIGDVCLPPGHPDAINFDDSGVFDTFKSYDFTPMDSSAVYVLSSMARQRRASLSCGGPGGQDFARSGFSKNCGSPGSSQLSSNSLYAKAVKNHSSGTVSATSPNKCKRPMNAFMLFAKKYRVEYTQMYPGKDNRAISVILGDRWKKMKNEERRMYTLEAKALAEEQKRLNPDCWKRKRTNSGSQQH

[2] = target: T2, GST-HBP1 (UniProt O60381); experiment: pull-down; GST-tagged protein or GST alone on glutathione-Sepharose beads overnight at 4 °C, then incubated with His-tagged protein for 4 h at 4 °C; immunoblotting with anti-His antibody; both purified
T2 sequence: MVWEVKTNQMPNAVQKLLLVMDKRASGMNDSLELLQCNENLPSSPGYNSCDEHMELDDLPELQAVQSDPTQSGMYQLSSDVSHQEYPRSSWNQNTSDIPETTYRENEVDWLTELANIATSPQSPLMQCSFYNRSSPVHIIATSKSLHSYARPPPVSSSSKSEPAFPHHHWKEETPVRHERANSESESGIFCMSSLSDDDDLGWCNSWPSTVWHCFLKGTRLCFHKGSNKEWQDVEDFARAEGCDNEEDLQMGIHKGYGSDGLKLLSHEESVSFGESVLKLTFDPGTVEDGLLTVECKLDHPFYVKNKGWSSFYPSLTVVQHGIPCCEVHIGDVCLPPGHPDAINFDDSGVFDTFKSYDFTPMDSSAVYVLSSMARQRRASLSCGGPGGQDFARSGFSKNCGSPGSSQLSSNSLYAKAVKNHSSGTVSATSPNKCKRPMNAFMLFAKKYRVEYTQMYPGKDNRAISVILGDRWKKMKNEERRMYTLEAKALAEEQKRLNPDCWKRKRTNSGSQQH

[3] = target: T3, endogenous HBP1 (human (endogenous in HeLa)) (UniProt O60381); experiment: co-IP; endogenous HBP1 or PRMT1 immunoprecipitated from HeLa cells; immunoblotted with anti-HBP1 or anti-PRMT1 antibodies
T3 sequence: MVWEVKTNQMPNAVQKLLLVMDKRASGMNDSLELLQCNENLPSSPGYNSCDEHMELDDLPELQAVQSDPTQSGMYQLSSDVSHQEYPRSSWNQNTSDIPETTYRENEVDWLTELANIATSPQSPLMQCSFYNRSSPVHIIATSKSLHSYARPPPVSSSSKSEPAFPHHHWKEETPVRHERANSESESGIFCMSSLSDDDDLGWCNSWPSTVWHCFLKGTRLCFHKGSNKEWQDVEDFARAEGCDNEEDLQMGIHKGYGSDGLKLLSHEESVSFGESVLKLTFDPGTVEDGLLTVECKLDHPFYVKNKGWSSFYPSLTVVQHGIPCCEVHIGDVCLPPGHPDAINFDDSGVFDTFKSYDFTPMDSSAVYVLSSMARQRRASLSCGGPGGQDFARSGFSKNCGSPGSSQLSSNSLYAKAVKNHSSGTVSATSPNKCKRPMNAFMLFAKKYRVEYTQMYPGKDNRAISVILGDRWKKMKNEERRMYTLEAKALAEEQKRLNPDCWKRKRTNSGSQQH

[4] = target: GST-PRMT1 (UniProt Q99873); experiment: pull-down; GST-tagged protein or GST alone on glutathione-Sepharose beads overnight at 4 °C, then incubated with His-tagged protein for 4 h at 4 °C; immunoblotting with anti-His antibody; both purified

- binding [1]: binds
Molecule: FLAG-PRMT1 (from UniProt Q99873 1-371) (enzyme)

- binding [2]: binds
Molecule: His-PRMT1 (from UniProt Q99873 1-371) (enzyme)

- binding [3]: binds
Molecule: endogenous PRMT1 (from UniProt Q99873 1-371) (enzyme)

- binding [4]: binds
B1: His-HBP1 (protein, UniProt O60381 1-514)
chain: MVWEVKTNQMPNAVQKLLLVMDKRASGMNDSLELLQCNENLPSSPGYNSCDEHMELDDLPELQAVQSDPTQSGMYQLSSDVSHQEYPRSSWNQNTSDIPETTYRENEVDWLTELANIATSPQSPLMQCSFYNRSSPVHIIATSKSLHSYARPPPVSSSSKSEPAFPHHHWKEETPVRHERANSESESGIFCMSSLSDDDDLGWCNSWPSTVWHCFLKGTRLCFHKGSNKEWQDVEDFARAEGCDNEEDLQMGIHKGYGSDGLKLLSHEESVSFGESVLKLTFDPGTVEDGLLTVECKLDHPFYVKNKGWSSFYPSLTVVQHGIPCCEVHIGDVCLPPGHPDAINFDDSGVFDTFKSYDFTPMDSSAVYVLSSMARQRRASLSCGGPGGQDFARSGFSKNCGSPGSSQLSSNSLYAKAVKNHSSGTVSATSPNKCKRPMNAFMLFAKKYRVEYTQMYPGKDNRAISVILGDRWKKMKNEERRMYTLEAKALAEEQKRLNPDCWKRKRTNSGSQQH
